No constants are given. Whether binding was seen depends on the method and setting. Binding seen in cells or lysates may run through a third protein. Some results given as binding are weak or reduced against the parent protein; the word gives no strength.

Sequences of proteins named here, by UniProt entry; tags and fusion partners are left off.
UniProt Q9UQE7: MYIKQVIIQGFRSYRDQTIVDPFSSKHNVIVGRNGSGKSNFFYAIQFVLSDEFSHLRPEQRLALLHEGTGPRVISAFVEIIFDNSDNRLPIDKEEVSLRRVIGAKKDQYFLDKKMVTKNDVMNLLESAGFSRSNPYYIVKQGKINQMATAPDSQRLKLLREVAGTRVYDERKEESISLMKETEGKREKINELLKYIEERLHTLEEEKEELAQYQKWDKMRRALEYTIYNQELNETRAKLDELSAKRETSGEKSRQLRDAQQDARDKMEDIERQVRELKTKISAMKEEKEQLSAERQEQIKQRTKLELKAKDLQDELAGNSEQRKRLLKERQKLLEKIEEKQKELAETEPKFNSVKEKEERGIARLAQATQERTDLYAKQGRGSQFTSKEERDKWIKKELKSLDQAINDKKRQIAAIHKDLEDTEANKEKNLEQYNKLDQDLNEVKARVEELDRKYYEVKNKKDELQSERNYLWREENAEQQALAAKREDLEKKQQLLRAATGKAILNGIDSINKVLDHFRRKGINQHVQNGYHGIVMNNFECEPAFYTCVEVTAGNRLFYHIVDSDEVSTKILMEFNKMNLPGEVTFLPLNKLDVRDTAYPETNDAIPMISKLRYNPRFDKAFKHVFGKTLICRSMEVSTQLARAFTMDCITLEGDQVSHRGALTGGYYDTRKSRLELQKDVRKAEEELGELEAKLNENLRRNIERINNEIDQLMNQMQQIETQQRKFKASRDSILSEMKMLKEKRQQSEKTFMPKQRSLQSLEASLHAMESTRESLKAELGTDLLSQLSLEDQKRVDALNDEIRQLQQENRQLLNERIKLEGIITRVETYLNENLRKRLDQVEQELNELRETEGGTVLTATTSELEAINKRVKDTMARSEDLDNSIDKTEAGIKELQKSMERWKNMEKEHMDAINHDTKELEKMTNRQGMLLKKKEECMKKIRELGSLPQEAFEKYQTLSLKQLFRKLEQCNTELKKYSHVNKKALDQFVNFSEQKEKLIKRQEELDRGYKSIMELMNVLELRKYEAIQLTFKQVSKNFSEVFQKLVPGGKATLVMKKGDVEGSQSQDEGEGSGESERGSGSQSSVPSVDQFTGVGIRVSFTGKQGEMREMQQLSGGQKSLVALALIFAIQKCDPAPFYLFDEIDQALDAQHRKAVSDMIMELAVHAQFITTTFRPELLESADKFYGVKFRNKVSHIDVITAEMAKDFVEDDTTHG
UniProt Q96FF9: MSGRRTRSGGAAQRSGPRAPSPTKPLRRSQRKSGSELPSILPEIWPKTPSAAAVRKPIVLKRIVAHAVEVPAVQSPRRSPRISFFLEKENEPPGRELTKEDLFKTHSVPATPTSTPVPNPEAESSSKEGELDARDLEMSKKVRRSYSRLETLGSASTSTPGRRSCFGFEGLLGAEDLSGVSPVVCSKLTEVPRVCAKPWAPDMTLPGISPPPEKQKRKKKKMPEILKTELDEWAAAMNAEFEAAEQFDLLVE

The experiment concerns the target SMC3 (human (endogenous in HEK293F, HEK293T and HeLa)) (UniProt Q9UQE7). Put plainly: co-IP; HEK293T RSMC+/+ and RSMC+/− cells in early S (0 h) or mid-S (5 h) phase; whole-cell lysates precipitated with anti-SMC3 antibody on protein G beads or control IgG, immunoblot.

Regarding “Sororin, endogenous (from UniProt Q96FF9 1-252)”, the binding entry is recorded as “binds”.

For the origin of these results see publication PMC12759081.
